Results from PMC6797205.
Construct, isoform or probe ends are uncertain for at least one entry. For some of these results: No signal at the amounts used counts as a negative. For some of these results: The comparison behind a weaker result is the experiment's own reference, which may not be listed here. For some of these results: At least one verdict was read from the data and is not stated in words by the source. For some of these results: Tags and fusion partners may be left off the protein sequences shown.

By UniProt entry, the sequences of proteins in these tests, tags left out. Where a name states a change or a piece, a line headed by the entry shows the natural chain unless it says otherwise.
UniProt Q94JM3: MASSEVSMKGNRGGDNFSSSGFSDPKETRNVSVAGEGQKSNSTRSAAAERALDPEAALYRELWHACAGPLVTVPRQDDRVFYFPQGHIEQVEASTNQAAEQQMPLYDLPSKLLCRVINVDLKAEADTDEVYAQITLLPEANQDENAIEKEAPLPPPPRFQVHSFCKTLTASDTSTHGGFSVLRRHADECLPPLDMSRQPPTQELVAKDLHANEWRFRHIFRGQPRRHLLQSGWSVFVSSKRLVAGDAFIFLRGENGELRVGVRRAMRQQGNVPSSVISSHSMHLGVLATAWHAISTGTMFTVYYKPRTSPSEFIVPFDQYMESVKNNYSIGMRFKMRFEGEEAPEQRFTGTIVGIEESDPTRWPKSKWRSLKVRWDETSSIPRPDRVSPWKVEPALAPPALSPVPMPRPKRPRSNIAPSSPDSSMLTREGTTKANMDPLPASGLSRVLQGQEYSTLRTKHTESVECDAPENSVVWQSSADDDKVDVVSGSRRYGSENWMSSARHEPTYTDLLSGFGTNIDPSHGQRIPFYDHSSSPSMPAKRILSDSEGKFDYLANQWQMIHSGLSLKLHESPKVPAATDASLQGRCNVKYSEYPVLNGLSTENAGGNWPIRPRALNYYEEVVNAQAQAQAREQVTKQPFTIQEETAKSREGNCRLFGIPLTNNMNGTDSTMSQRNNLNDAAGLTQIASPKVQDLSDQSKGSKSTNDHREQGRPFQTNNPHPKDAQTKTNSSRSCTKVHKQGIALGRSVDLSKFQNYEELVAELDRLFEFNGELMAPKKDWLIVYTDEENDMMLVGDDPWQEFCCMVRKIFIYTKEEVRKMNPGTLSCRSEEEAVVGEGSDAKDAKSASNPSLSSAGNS

Assays:
Assay in all cases: EMSA
[1] = target: T1, AtARF5 (Arabidopsis thaliana) (UniProt P93024); details: 0.25 uM protein; EMSA: 20 mM HEPES pH 7.8, 50 mM KCl, 100 mM Tris-HCl pH 8.0, 2.5% glycerol, 1 mM DTT, 0.07 mg/ml salmon and herring sperm DNA, 20 nM Cy5 DNA, 30 min at 4 C; 2% agarose; recombinant protein; residues 1-902; protein details: His; label: Cy5
T1 sequence (looked up): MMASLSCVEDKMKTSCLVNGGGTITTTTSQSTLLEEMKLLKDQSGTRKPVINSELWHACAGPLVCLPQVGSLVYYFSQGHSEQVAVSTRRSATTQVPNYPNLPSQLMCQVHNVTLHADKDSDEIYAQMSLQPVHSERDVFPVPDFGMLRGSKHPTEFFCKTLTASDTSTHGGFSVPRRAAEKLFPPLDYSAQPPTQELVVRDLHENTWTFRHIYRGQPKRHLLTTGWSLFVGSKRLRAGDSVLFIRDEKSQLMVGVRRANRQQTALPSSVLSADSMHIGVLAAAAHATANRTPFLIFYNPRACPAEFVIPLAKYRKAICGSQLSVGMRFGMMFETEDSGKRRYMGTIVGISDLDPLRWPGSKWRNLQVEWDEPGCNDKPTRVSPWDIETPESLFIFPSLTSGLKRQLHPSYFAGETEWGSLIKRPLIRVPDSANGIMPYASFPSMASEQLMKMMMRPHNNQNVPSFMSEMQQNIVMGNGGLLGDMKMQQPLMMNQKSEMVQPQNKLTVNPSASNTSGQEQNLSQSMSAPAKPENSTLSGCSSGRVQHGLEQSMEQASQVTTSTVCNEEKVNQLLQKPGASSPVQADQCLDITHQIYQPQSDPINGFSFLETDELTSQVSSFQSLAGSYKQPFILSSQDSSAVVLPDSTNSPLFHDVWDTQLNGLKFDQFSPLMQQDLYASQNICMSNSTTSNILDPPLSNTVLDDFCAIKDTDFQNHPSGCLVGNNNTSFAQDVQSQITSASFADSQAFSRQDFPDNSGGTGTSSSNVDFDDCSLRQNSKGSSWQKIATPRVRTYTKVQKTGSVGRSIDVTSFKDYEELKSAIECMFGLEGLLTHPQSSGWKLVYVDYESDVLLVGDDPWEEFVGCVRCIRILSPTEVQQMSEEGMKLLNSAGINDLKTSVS

[2] = target: T2, AtARF10 (Arabidopsis thaliana) (UniProt Q9SKN5); details: 0.25 uM protein; EMSA: 20 mM HEPES pH 7.8, 50 mM KCl, 100 mM Tris-HCl pH 8.0, 2.5% glycerol, 1 mM DTT, 0.07 mg/ml salmon and herring sperm DNA, 20 nM Cy5 DNA, 30 min at 4 C; 2% agarose; recombinant protein; residues 1-693; protein details: His; label: Cy5
T2 sequence (looked up): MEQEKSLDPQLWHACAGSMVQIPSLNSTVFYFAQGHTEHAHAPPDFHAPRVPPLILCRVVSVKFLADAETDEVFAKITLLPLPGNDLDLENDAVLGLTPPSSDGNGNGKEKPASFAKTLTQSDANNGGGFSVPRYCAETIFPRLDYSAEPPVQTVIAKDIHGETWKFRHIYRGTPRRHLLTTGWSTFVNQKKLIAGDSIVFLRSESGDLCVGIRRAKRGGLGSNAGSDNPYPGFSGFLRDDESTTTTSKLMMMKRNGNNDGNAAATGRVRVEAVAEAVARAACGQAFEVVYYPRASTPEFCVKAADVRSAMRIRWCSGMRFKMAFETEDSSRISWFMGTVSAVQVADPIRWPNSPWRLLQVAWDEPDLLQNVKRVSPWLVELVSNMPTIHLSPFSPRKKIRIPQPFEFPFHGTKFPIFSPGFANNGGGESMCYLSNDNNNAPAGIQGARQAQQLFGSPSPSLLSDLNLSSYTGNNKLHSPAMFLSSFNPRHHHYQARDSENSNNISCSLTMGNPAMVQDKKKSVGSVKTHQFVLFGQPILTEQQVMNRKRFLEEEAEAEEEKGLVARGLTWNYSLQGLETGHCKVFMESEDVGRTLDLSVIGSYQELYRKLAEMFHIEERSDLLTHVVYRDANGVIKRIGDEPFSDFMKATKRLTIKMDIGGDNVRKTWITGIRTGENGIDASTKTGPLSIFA

[3] = target: AtARF2 (Arabidopsis thaliana) (UniProt Q94JM3); details: 0.25 uM protein; EMSA: 20 mM HEPES pH 7.8, 50 mM KCl, 100 mM Tris-HCl pH 8.0, 2.5% glycerol, 1 mM DTT, 0.07 mg/ml salmon and herring sperm DNA, 20 nM Cy5 DNA, 30 min at 4 C; 2% agarose; recombinant protein; residues 1-859; protein details: His; label: Cy5
[4] = test system: CaARF (Chlorokybus atmophyticus); details: 1 uM protein; EMSA: 20 mM HEPES pH 7.8, 50 mM KCl, 100 mM Tris-HCl pH 8.0, 2.5% glycerol, 1 mM DTT, 0.07 mg/ml salmon and herring sperm DNA, 20 nM Cy5 DNA, 30 min at 4 C; 2% agarose; recombinant protein; protein details: N-terminal MBP (pETM40); label: Cy5
[5] = test system: CaARF-DBD (Chlorokybus atmophyticus); details: 0.5 uM protein; EMSA: 20 mM HEPES pH 7.8, 50 mM KCl, 100 mM Tris-HCl pH 8.0, 2.5% glycerol, 1 mM DTT, 0.07 mg/ml salmon and herring sperm DNA, 20 nM Cy5 DNA, 30 min at 4 C; 2% agarose; recombinant protein; protein details: N-terminal MBP (pETM40); label: Cy5

“GATACACGCTTGTCGGCCAAGAAGGCCGACAACCACTCA (double strand) [ER9]”: binds more weakly [1]; binds [2]; binds more weakly [3]. “GATACACGCTTGTCGGCCAAGAAGGCCGACAACCACTCA (double strand) [ER9]”: binds [4].
“GATACACGCTTGTCGGCCAAAGGCGGTGTACCACTCA (double strand) [SS (single AuxRE site)]”: no binding [4].
“GATACACGCAATGTCGGCCTTTTGTCGGTTCCACTCA (double strand) [DR5]”: binds [5].
“GATACACGCTTGTCTCCCAAAGGCGG (double strand) [ARF (single AuxRE)]”: no binding [5].
“GATACACGCTTGTCGGCCAAGGCCGACAACCACTCA (double strand) [ER6]”: binds more weakly [1]; binds [2]; binds more weakly [3]. “GATACACGCTTGTCGGCCAAGGCCGACAACCACTCA (double strand) [ER6]”: binds [4].
“GATACACGCTTGTCGGCAAGCCGACAACCACTCA (double strand) [ER4]”: binds more weakly [1]; binds [2]; binds more weakly [3]. “GATACACGCTTGTCGGCAAGCCGACAACCACTCA (double strand) [ER4]”: binds [4].
“GATACACGCTTGTCGGCAAAGCCGACAACCACTCA (double strand) [ER5]”: binds more weakly [1]; binds [2]; binds more weakly [3]. “GATACACGCTTGTCGGCAAAGCCGACAACCACTCA (double strand) [ER5]”: binds [4].
